These are yes or no findings as the source states them, for the method shown. In cells and extracts the contact can be indirect. Binding can be weak; no strength is given.
Molecular target: GST-C terminal of beta-catenin
Test: pull-down; purified GST fusions of beta-catenin (full length, C terminal, N terminal) with 7404 cell lysate; only the target purified

B1: CARF (endogenously expressed) (protein, UniProt Q9NXV6 1-580)
chain: MAQEVSEYLSQNPRVAAWVEALRCDGETDKHWRHRRDFLLRNAGDLAPAGGAASASTDEAADAESGTRNRQLQQLISFSMAWANHVFLGCRYPQKVMDKILSMAEGIKVTDAPTYTTRDELVAKVKKRGISSSNEGVEEPSKKRVIEGKNSSAVEQDHAKTSAKTERASAQQENSSTCIGSAIKSESGNSARSSGISSQNSSTSDGDRSVSSQSSSSVSSQVTTAGSGKASEAEAPDKHGSASFVSLLKSSVNSHMTQSTDSRQQSGSPKKSALEGSSASASQSSSEIEVPLLGSSGSSEVELPLLSSKPSSETASSGLTSKTSSEASVSSSVAKNSSSSGTSLLTPKSSSSTNTSLLTSKSTSQVAASLLASKSSSQTSGSLVSKSTSLASVSQLASKSSSQTSTSQLPSKSTSQSSESSVKFSCKLTNEDVKQKQPFFNRLYKTVAWKLVAVGGFSPNVNHGELLNAAIEALKATLDVFFVPLKELADLPQNKSSQESIVCELRCKSVYLGTGCGKSKENAKAVASREALKLFLKKKVVVKICKRKYRGSEIEDLVLLDEESRPVNLPPALKHPQELL
**Q.** B1 was tested. Which binding did it give?
**A.** binds

— PMC5348329
